In the supplement of paper PMC12819154, “High-throughput peptide-centric local stability assay extends protein–ligand identification to membrane proteins, tissues and bacteria” (Nature Structural & Molecular Biology, 2025):
This is one part of the list. Most entries show no effect beyond the scatter of the controls.

Sequences of proteins named here, by UniProt entry; tags and fusion partners are left off. A change or cut given only in a name is not applied to a line headed by its entry.
UniProt P21619: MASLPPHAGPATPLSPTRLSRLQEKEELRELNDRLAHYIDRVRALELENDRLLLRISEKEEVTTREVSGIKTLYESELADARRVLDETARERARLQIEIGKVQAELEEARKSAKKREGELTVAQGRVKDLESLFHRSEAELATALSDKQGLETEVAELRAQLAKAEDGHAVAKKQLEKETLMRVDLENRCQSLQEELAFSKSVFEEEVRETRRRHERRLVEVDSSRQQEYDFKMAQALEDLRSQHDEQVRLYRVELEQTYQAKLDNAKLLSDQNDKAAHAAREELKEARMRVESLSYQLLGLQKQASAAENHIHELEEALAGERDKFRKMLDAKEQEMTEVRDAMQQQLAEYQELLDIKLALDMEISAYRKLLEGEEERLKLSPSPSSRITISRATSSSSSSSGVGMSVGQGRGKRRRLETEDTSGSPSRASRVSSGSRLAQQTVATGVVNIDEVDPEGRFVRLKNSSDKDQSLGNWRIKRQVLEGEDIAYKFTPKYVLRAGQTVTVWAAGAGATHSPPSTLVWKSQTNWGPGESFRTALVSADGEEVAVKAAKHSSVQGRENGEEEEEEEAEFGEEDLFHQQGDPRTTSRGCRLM
UniProt P25688: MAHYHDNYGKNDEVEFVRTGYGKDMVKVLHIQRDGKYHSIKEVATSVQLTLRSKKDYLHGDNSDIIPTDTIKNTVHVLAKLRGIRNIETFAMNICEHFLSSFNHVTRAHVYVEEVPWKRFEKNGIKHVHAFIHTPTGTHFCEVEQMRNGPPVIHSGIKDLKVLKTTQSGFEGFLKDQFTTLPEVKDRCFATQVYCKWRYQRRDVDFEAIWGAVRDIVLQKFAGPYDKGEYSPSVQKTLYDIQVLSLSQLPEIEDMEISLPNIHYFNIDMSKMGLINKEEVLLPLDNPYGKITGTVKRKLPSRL
UniProt P23881: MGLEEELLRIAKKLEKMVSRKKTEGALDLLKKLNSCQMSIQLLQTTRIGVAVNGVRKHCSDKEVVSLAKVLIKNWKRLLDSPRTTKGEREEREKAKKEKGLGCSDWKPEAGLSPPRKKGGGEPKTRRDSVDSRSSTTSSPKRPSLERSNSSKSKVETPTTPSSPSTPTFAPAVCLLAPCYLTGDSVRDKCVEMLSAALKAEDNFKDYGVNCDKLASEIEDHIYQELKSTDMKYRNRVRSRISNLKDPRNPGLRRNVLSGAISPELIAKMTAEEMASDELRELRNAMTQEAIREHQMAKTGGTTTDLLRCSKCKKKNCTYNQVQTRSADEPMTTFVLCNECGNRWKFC
UniProt P19536: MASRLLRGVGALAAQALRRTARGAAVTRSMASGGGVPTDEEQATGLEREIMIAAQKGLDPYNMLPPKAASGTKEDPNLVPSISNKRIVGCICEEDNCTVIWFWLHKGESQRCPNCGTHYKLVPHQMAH
UniProt P08103: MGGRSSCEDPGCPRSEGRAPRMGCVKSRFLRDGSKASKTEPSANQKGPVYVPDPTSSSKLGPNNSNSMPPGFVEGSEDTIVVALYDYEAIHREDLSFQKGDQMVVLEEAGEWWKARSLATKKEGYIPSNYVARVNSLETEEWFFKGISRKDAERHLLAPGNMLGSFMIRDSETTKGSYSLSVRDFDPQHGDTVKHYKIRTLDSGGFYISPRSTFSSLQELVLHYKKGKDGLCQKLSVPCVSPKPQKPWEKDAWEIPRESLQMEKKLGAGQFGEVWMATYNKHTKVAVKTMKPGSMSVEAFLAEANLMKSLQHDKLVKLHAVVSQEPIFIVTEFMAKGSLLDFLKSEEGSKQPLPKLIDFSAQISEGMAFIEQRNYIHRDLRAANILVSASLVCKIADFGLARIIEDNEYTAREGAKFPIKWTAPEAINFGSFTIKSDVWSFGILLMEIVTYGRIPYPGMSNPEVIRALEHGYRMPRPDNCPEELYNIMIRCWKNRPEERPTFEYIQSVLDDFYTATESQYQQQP
UniProt P04104: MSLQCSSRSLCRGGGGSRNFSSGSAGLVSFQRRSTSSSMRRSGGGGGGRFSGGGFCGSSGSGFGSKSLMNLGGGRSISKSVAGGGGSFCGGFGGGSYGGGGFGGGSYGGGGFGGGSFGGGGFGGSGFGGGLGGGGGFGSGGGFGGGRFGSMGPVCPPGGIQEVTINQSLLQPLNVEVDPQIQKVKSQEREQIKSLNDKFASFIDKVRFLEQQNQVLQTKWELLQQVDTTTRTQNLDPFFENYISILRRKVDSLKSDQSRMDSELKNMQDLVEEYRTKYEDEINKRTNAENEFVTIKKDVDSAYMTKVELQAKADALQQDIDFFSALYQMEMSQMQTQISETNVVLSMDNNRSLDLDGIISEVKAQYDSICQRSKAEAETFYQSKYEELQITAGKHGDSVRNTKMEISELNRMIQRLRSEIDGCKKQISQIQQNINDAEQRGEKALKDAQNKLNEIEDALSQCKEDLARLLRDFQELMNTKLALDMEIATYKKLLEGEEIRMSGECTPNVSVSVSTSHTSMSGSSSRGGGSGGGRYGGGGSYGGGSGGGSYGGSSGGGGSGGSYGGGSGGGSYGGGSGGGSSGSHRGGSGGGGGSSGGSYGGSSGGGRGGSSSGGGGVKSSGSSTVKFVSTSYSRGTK
UniProt P06330, whole entry: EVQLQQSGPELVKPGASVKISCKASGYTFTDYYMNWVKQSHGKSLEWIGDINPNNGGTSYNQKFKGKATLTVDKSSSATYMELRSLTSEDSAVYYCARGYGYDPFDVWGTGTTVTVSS
UniProt P10605: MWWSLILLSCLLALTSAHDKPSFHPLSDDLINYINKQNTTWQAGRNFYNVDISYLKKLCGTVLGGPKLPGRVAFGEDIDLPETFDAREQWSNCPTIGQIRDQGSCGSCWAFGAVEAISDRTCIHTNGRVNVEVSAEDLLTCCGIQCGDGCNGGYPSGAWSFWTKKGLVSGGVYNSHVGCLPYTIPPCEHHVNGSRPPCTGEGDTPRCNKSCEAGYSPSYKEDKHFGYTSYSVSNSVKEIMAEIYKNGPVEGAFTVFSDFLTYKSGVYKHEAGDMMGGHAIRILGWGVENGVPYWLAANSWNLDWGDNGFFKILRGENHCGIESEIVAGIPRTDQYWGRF
UniProt P22315: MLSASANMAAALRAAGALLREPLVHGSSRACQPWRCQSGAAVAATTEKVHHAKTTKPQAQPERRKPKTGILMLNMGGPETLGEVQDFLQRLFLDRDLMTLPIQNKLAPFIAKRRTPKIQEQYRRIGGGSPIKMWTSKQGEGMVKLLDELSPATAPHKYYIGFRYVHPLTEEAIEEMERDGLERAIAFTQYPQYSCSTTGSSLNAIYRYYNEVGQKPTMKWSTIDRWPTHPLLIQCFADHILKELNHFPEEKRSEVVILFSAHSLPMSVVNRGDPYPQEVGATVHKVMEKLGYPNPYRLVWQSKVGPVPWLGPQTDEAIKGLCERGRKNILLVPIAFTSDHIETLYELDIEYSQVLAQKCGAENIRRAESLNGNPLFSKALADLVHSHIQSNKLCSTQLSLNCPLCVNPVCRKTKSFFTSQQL
UniProt P24547, whole entry, looked up: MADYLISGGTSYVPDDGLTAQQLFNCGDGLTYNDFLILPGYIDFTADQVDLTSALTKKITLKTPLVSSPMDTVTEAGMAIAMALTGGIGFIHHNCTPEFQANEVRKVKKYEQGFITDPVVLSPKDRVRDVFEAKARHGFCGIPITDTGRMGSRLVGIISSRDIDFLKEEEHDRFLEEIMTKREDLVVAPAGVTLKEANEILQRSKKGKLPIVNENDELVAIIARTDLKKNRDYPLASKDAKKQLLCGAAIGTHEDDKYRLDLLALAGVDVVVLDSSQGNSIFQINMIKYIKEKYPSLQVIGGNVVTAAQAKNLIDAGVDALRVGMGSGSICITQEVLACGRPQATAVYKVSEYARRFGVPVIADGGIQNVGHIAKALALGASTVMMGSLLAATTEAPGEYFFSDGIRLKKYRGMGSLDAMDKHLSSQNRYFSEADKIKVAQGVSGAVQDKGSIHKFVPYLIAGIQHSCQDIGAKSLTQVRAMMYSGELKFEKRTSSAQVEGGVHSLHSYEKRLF
UniProt P08228, whole entry: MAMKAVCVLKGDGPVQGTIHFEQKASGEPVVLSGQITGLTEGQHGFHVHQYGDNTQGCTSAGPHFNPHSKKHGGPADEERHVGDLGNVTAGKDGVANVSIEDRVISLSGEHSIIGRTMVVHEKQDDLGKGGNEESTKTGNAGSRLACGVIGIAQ
UniProt P05784: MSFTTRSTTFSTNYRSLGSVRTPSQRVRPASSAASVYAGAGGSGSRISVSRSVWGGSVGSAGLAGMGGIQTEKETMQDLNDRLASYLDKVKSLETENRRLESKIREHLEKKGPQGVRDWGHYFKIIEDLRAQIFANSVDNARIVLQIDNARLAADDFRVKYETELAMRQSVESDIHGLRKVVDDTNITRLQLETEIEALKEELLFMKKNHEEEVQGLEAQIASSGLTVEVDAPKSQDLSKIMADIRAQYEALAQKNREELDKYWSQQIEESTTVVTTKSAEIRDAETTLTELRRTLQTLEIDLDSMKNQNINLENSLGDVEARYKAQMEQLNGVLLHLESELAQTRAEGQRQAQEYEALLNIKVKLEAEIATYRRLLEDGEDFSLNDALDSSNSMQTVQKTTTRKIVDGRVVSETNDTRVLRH
UniProt P04939: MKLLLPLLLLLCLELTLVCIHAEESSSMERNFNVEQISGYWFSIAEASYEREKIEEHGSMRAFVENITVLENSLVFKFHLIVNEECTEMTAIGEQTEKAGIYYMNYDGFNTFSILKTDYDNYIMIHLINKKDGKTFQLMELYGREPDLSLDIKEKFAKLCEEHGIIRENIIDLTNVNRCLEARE
UniProt P27546: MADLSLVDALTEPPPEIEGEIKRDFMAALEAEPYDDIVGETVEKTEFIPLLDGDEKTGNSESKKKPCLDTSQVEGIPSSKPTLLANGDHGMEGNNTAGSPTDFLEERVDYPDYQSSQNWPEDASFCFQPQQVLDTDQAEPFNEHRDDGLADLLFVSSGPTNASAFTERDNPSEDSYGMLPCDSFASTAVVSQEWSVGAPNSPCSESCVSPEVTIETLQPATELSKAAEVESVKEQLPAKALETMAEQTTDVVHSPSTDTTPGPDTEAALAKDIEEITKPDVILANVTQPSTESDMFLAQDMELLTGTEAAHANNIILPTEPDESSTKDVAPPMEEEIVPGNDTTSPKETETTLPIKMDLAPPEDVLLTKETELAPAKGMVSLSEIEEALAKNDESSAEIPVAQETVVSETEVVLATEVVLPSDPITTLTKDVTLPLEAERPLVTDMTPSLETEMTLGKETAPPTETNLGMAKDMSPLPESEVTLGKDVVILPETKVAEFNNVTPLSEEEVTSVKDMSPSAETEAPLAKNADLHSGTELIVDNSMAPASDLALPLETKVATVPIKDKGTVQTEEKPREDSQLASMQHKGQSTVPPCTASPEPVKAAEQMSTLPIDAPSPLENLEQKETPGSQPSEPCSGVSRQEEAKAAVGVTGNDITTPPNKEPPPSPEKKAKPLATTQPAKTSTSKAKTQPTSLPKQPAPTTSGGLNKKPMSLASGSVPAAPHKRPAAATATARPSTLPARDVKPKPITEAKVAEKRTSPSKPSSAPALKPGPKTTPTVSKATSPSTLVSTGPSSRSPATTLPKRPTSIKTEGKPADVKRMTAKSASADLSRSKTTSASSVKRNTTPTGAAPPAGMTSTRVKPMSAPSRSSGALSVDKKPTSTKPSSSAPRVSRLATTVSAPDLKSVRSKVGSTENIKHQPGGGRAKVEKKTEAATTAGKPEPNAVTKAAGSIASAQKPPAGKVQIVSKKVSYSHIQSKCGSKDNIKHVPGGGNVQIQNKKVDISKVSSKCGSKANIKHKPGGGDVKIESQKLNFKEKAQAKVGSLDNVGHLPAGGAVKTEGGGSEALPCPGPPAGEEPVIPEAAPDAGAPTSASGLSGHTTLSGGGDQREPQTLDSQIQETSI
UniProt P12382: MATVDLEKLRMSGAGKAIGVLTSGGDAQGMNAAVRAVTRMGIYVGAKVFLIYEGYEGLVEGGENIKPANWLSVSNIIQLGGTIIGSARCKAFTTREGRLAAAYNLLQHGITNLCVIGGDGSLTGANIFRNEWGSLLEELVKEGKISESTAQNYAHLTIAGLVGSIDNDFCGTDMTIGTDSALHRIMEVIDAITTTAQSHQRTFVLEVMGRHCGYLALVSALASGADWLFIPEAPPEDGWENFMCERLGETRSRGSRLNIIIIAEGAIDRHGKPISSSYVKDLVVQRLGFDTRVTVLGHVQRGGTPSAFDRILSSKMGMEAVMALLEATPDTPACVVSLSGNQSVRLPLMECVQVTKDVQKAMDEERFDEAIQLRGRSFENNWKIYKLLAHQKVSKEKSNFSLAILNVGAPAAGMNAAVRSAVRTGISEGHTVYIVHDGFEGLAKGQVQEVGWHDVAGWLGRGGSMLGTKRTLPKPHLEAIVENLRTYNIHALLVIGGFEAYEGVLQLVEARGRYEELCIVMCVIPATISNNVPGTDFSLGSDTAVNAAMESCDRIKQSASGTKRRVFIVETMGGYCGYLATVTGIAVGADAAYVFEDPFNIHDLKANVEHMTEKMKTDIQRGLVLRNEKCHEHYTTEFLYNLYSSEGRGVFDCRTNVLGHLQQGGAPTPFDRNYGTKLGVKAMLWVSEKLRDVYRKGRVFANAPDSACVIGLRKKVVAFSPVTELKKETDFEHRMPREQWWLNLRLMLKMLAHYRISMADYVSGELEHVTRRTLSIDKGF

compound: CN[C@@H]1C[C@H]2O[C@@](C)([C@@H]1OC)n1c3ccccc3c3c4c(c5c6ccccc6n2c5c31)C(=O)NC4 [staurosporine]; assay: log2 fold change of pooled soluble protein (PISA), ligand vs vehicle (log2 ratio); higher = more thermally stabilized; details: ligand concentration: 20 uM; assay format: PISA pool 52.9/55.5/58.6 C

Row | Target | log2 fold change of pooled soluble protein
1 | UniProt P24452 | -0.0667
2 | UniProt P21619 | 0.0565
3 | UniProt P25688 | -0.175
4 | UniProt P21279 | -0.207
5 | UniProt P23881 | 0.225
6 | UniProt P17918 | -0.0213
7 | UniProt P16882 | 0.0552
8 | UniProt P19536 | -0.11
9 | UniProt P08103 | 0.335
10 | UniProt P19639 | -0.184
11 | UniProt P04104 | -0.527
12 | UniProt P14869 | 0.0222
13 | UniProt P16331 | 0.165
14 | UniProt P17710 | -0.0387
15 | UniProt P26150 | -0.0974
16 | UniProt P14069 | 0.225
17 | UniProt P28271 | 0.032
18 | UniProt P01899 | 0.0524
19 | UniProt P10711 | -0.0793

Row | Target | log2 fold change of pooled soluble protein
20 | UniProt P06330 | -0.00441
21 | UniProt P10605 | 0.123
22 | P0C0S6;Q3THW5 | -0.0203
23 | UniProt P15306 | 0.351
24 | UniProt P22315 | 0.229
25 | UniProt P10639 | 0.206
26 | UniProt P24547 | -0.0592
27 | UniProt P21460 | 0.236
28 | UniProt P08228 | 0.0268
29 | UniProt P06684 | 0.000162
30 | UniProt P05784 | -0.327
31 | UniProt P02088 | 0.145
32 | UniProt P03930 | -0.0222
33 | UniProt P11835 | -0.0541
34 | UniProt P04939 | 0.0255
35 | UniProt P09602 | 0.0803
36 | UniProt P27546 | 0.0232
37 | UniProt P12382 | 0.0387

Quoted from above, nos. 27–29
Row | Target | log2 fold change of pooled soluble protein
27 | UniProt P21460 | 0.236
28 | UniProt P08228 | 0.0268
29 | UniProt P06684 | 0.000162
